Results are given in words; binding and its absence hold for the method and conditions named. Some results given as binding are weak or reduced against the parent protein; the word gives no strength. Where a sequence is shown, tags or fusion partners need not be part of it.
Biological target: LexA-E12477-654 (amino acids 477 to 654 of human E12 fused to LexA) (human) (UniProt P15923)
Assay: yeast interaction trap screen of a rat aorta cDNA library with the LexA-E12477-654 bait

The chains behind the UniProt entries cited, without tags or fusion partners. Residues count along the entry.
UniProt P15923, residues 477-654: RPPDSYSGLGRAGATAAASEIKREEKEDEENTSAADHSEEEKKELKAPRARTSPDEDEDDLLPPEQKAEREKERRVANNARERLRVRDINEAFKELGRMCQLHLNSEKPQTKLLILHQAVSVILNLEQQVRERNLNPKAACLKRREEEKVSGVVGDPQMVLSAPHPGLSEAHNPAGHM

Row | Binder | binding
1 | Id3 (clone of the rat aorta cDNA library, activation-domain fusion) (protein, UniProt P41138 1-119, looked up, not shown: large carriers) MKALSPVRGCYEAVCCLSERSLAIARGRGKSPSAEEPLSLLDDMNHCYSRLRELVPGVPRGTQLSQVEILQRVIDYILDLQVVLAEPAPGPPDGPHLPIQTAELTPELVISKDKRSFCH | binds
2 | Id1 (clone of the rat aorta cDNA library, activation-domain fusion) (protein, UniProt P41135 1-164, looked up, not shown: large carriers) MKVASSSAAATAGPSCSLKAGRTAGEVVLGLSEQSVAISRCAGTRLPALLDEQQVNVLLYDMNGCYSRLKELVPTLPQNRKVSKVEILQHVIDYIRDLQLELNSESEVATAGGRGLPVRAPLSTLNGEISALAAEVRSESEYYIILLWETKATGGGCPPYFSGA | binds

From patent US20020128189A1, “Ubiquitination of the transcription factor E2A” (President and Fellows of Harvard College, a Massachusetts …, priority 1996, published 2002)
